Data as given in PubChem BioAssay AID1347426 (Functional Genomics Laboratory (NCATS/FGL), 2020).
In all, about 31,000 sequences went through this assay and about 1,400 (4.5%) were called active.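 Rule for the calls: active = median seed-adjusted z-score above 1 or below -1; inactive = the rest.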 Some of the results follow.

Assay: Novel Modifiers of Survival Motor Neuron (SMN) Protein: Gene Identification via Genome-wide siRNA Screen;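 note: luminescence tracks full-length SMN protein made from the SMN2 reporter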
Conditions: HEK293T SMN2-luciferase reporter, siRNA knockdown, 72 h; actives lie on both sides
Outline: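 Luciferase signal, proportional to full-length SMN made from an SMN2 cDNA reporter in stable HEK293T cells, was read 72 h after siRNA reverse transfection. Values were expressed as MAD scores after non-targeting-control normalization and log10 conversion; seed analysis flagged off-targets.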

Row | Sequence | median seed-adjusted z-score
1 | GGGCGAAAGUUCACUUAGATT against SMARCA5 | inactive: -0.0804
2 | CACCGCUACUGGUUGAGAATT against PIP5K3 | inactive: 0.00523
3 | CCCUUACAGAAGCCCGAUATT against KIF21A | inactive: 0.53
4 | CAGAUUCCCUCAGACCUUUTT against MAGED1 | inactive: 0.524
5 | GCGGUUCCCUAGAGAAUCATT against ARSE | inactive: 0.705
6 | CAAGGGUAUUAUUCGAGUUTT against PPP1R3A | inactive: -0.241
7 | GCCUCAUGUAAAACCCUAUTT against MYLK | inactive: 0.0226
8 | GCCUCUACCUCUUCGAAAATT against CLEC11A | active: -1.1
9 | GACCCGCUUUCUACCGUUATT against ENTPD4 | inactive: 0.324
10 | GGAGGAAUCUCGAAUGCGATT against CNOT1 | active: 1.2
11 | GACUUAAUCACUAACGAGATT against SULF1 | inactive: -0.128
12 | CCAGUGCUAUGAGGACAUUTT against CORO1B | inactive: 0.405
13 | CACCGACUCUGAGUGUCUATT against KCTD11 | inactive: 0.374
14 | GGAUGGAAUCUACAGGCUUTT against GUCY2F | inactive: 0.188
15 | CUGUCGCUAAUGAAGUAUATT against TRDMT1 | inactive: 0
16 | CCCUAAAGAUGGUGCGGAATT against DYRK2 | inactive: 0
17 | GCAUCUCUGCGGUCACCAATT against CACNA1I | inactive: 0.346
18 | CCAGUUACGCGUUCCCAUUTT against ZNF479 | inactive: -0.269
19 | GAACGGCAACCUCUACUUUTT against L1CAM | inactive: 0
20 | GAGGCAUUCUUUGAGCGAATT against ZNF554 | inactive: 0.0311
21 | CCAGUCAGUUGACCAUUGATT against BRF1 | inactive: -0.261
22 | GAAUCCUGAUGGUAUCAAUTT against CDH11 | inactive: -0.457
23 | CGAGCGUACAGGUCAAUUATT against GATM | inactive: 0.182
24 | GGAAGCUACUUUCAAGCGATT against TAGAP | inactive: 0
25 | GUAUAGACAUCUUCACUAATT against CP | inactive: 0.188
26 | ACAAUGAUCUGGAGAAACATT against HMHA1 | inactive: -0.285
27 | GCACAAGGAGUGACCUUCUTT against GCHFR | inactive: -0.559

Reformatted with each value named: entries from further up
CACCGCUACUGGUUGAGAATT against PIP5K3
  median seed-adjusted z-score: inactive: 0.00523
CCCUUACAGAAGCCCGAUATT against KIF21A
  median seed-adjusted z-score: inactive: 0.53

Following part

Row | Sequence | median seed-adjusted z-score
28 | GUCUGGAGAUGAUCGACCATT against HPD | inactive: -0.126
29 | GGAAGGAAAUCUCAACUAUTT against CDH4 | inactive: 0
30 | UGAAUUACCUGGACCGUUUTT against CCND2 | inactive: -0.819
31 | UGAAAUGGAUGAAAACCUATT against SNAP25 | inactive: 0
32 | GAAGGAGUUUGACAUUAAUTT against MYH6 | inactive: 0
33 | CGACAUAUGUCUGAUAACATT against SFRS15 | inactive: 0.22
34 | AGGCAAAGACGGAACAACATT against TRIM69 | inactive: 0.214
35 | GGUUGGUCUUUAUUGAGCATT against CFD | inactive: -0.0604
36 | GGAAUCAAGAAGUUACUAATT against NSF | inactive: -0.0728
37 | GCAGAUUGCUGGUCACAAATT against PLA2G2F | inactive: 0.508
38 | AGACACUUCUACAAGCCCATT against DGAT1 | inactive: 0.148
39 | GGAUAAACUUUAUACUGGUTT against MMAA | inactive: -0.664
40 | CCCUGAUGGAAAACGCAUATT against FLT1 | inactive: 0.407
41 | GCUUUAACCUGGGCAUGUUTT against NAT6 | inactive: -0.327
42 | GCCUCUCAGUGUCUGACUUTT against SRC | inactive: -0.0246
43 | GAAACAUCCUUGGUACCUATT against BRSK1 | inactive: -0.0495
44 | CCUCAAGCAGAAUCUAAGATT against PTN | inactive: -0.174
45 | GCAAUUUCCUGAUCAAAUUTT against EXTL2 | inactive: -0.0568
46 | GAACAAUUUUGCAAGAGUUTT against CPT2 | inactive: 0.542
47 | GCACGAAAAUCCCGACAUATT against DDX54 | inactive: 0
48 | GGAUGAUGCAAAGGUCAAATT against SREBF2 | inactive: -0.606
49 | GGAUCAGUUUGACAGUUUUTT against RNPEP | inactive: -0.236
50 | CCUCAUCCAUGUAAGGUUATT against MYOG | inactive: -0.0972
51 | GGAUGUAGUUUUUGGAACATT against NHLRC2 | inactive: 0.548
52 | CCUUCGACCUCAAGAGACATT against OVOL1 | inactive: -0.0414
53 | GAGAGAAACUGUCAGAGUATT against RNF185 | inactive: -0.388
54 | AGAUGAUCGAGAAAACCAATT against POLD1 | inactive: -0.715
